# Patent publication US20170050988A1, “DOTAM DERIVATIVES FOR THERAPEUTIC USE” (priority 2013, published 2017)
# At least one peptide structure holds a part that was inferred or is arguable (an end, a ring closure or a residue). Starred links: 1 amine or outer side, 2 acyl side, 3 side chain; linkers in the order of their positions; H or OH if unused. Positions of bridges follow the written chain, without caps; N, C: chain ends. Residues, ends and D or L forms follow the SMILES beside them. Chains are numbered I, II in the order given. X1 = CN1/C(=C/C=C/C=C/C2=[N+](CCCCCC(=O)NCCOCCOCCNC(=O)CN3CCN(CC(=O)NCCOCCOCCN[*:1])CCN(CC(=O)NCCOCCOCCN[*:3])CCN(CC(=O)NCCOCCOCCN[*:2])CC3)c3ccc4ccccc4c3C2(C)C)C(C)(C)c2c1ccc1ccccc21
# Test system: pig articular cartilage explants
# Assay: Ex vivo binding assay with pig articular cartilage explants
# Conditions: 5 μM probe, 24 h incubation, washed; integrated fluorescence
compound,measurement,value
"CC(=O)N[C@@H](Cc1c[nH]c2ccccc12)C(=O)N[C@@H](Cc1ccc(O)cc1)C(=O)N[C@@H](CCCNC(=N)N)C(=O)NCC(=O)N[C@@H](CCCNC(=N)N)C(=O)N[C@@H](CC(C)C)C(=O)NCCOCCOCCNC(=O)CN1CCN(CC(=O)NCCOCCOCCNC(=O)CCCCC[N+]2=C(/C=C/C=C/C=C3/N(C)c4ccc5ccccc5c4C3(C)C)C(C)(C)c3c2ccc2ccccc32)CCN(CC(=O)NCCOCCOCCNC(=O)[C@H](CC(C)C)NC(=O)[C@H](CCCNC(=N)N)NC(=O)CNC(=O)[C@H](CCCNC(=N)N)NC(=O)[C@H](Cc2ccc(O)cc2)NC(=O)[C@H](Cc2c[nH]c3ccccc23)NC(C)=O)CCN(CC(=O)NCCOCCOCCNC(=O)[C@H](CC(C)C)NC(=O)[C@H](CCCNC(=N)N)NC(=O)CNC(=O)[C@H](CCCNC(=N)N)NC(=O)[C@H](Cc2ccc(O)cc2)NC(=O)[C@H](Cc2c[nH]c3ccccc23)NC(C)=O)CC1 [HHY-290, (AcWYRGRL)3-DOTA-Cy5.5] (I: Ac-WYRGRL / II: Ac-WYRGRL / III: Ac-WYRGRL; linker I:C-II:C-III:C via X1)",fold greater accumulation in cartilage vs HHY-293,1.8 fold
same,fold greater accumulation in cartilage vs HHY-312,3.1 fold
same,fold mean increase of probe accumulation in cartilage vs non-targeted HHY-306,36.6 fold
